Values quoted from earlier work as cited in patent US8765779B2, “Tricyclic derivatives and their pharmaceutical use and compositions” (Cephalon, Inc., priority 2009, dated 2014).
At least one compound was matched to its structure with a doubt left.

System: patients with advanced pain and cancer
Details: single agent; cited from earlier work

**Q.** Which nausea does the source give for `Cc1cc2c(s1)Nc1ccccc1N=C2N1CCN(C)CC1` [OLN, olanzapine] here?
**A.** Its nausea is “improves or reduces nausea”.
